Test results published in the supplement of paper PMC8256030.
“And” between values parts separate entries of the source, which are not always exact repeats. Identical values can stand only once. This is one part of the list. This data set is noisy: repeats of one test often differ as much as different tests do.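 HEK293T cells were given each compound shortly before transfection with a reporter in which red mCherry is followed by the SARS-CoV-2 frameshift element and then GFP in the −1 frame, so GFP appears only after frameshifting.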

The compounds below were run on SARS-CoV-2 -1 PRF reporter mCherry-FSE-GFP(-1) (assay: percent effect, decrease of GFP/mCherry ratio (-1 PRF reporter) relative to controls; higher = stronger frameshift inhibition). Details: 10 µM; 24 h; HEK293T.
CC(=O)[C@@]1(C)CC[C@H]2[C@@H]3C=C(C)C4=CC(=O)CC[C@]4(C)[C@H]3CC[C@@]21C [medrogestone] gave a percent effect of -20.7%. With C[C@@H]1CC[C@@]2(OC1)O[C@H]1C[C@H]3[C@@H]4CC[C@H]5C[C@@H](O[C@@H]6O[C@H](CO)[C@@H](O[C@@H]7O[C@H](CO)[C@@H](O)[C@H](O)[C@H]7O)[C@H](O)[C@H]6O)CC[C@]5(C)[C@H]4CC[C@]3(C)[C@H]1[C@@H]2C [tiqueside] the percent effect was -4.53%. O=C1CN2Cc3c(ccc(Cl)c3Cl)N=C2N1 showed a percent effect of 1.65%. Compound O=C1[C@H]2CCCC[C@H]2C(=O)N1CCCCN1CCN(c2nsc3ccccc23)CC1 [perospirone] has a percent effect of -3.57%. For CC1=Nc2ccc(Cl)cc2S(=O)(=O)N1 [Diazoxide], the percent effect was 1.25%. With COc1c2occc2cc2ccc(=O)oc12 the percent effect was -1.26%. With COC(=O)C1=C(C)NC(C)=C(C(=O)OC(C)(C)CN(C)CCC(c2ccccc2)c2ccccc2)C1c1cccc([N+](=O)[O-])c1 (stereo not given) [lercanidipine] the percent effect was -2.53%. For O=C1c2ccccc2S(=O)(=O)N1CCCCN1CCN(c2ncccn2)CC1 [ipsapirone], the percent effect was 1.45%. O=C(O)c1ccc[n+]([O-])c1 showed a percent effect of -0.177%. COc1cc2nccc(Oc3ccc(NC(=O)NC4CC4)c(Cl)c3)c2cc1C(N)=O [Lenvatinib] was tested, and the percent effect was -3.24%. For NC[C@H](O)c1ccc(O)c(O)c1, the percent effect was -2.6%. For O=C(O)C1CC(O)CN1 (stereo not given) [Hydroxyproline], the percent effect was -5.3%. In the case of COc1cc(CNC(=O)CCCC/C=C/C(C)C)ccc1O [capsaicin], the percent effect is reported as 1.81% and 13.7%. CN(C)CCOC(=O)COc1ccc(Cl)cc1 [meclofenoxate] showed a percent effect of -5.48%. C[N+]12CCCCC1CCC(=C(c1cccs1)c1cccs1)C2 (stereo not given) [tiquizium bromide] showed a percent effect of -0.0679%. In the case of COc1ccc(-c2ccc3cc(C(=O)O)ccc3c2)cc1C12CC3CC(CC(C3)C1)C2 [adapalene], the percent effect is reported as -3.84% and -1.6%. In the case of C/C(=C(\CCOP(=O)(O)O)SC(=O)c1ccccc1)N(C=O)Cc1cnc(C)nc1N [benfotiamine], the percent effect is reported as -0.417%. For Cc1c(O)cccc1C(=O)N[C@@H](CSc1ccccc1)[C@H](O)CN1C[C@H]2CCCC[C@H]2C[C@H]1C(=O)NC(C)(C)C [nelfinavir], the percent effect was 2.54%. For CCNC(=O)N1CCN(CCCC(c2ccc(F)cc2)c2ccc(F)cc2)CC1 [amperozide], the percent effect was -2.92%. CNC[C@H](O)[C@@H](O)[C@H](O)[C@H](O)CO [meglumine] showed a percent effect of -6.77%. In the case of N[C@@H]1C[C@H]1c1ccccc1.N[C@H]1C[C@@H]1c1ccccc1 [Tranylcypromine], the percent effect is reported as -4.74% and 5.22%. With CC(=O)NC(Cc1ccccc1)C(=O)O (stereo not given) the percent effect was -0.65%. CCOC(=O)[N-]c1c[n+](N2CCOCC2)no1 [Molsidomine] was tested, and the percent effect was 0.839%. Work on CC1=C(C(=O)O)N2C(=O)[C@@H](NC(=O)[C@H](N)c3ccccc3)[C@H]2SC1 [cefalexin] yielded a percent effect of -0.458%. In the case of CC/N=C(\NCC)NCCCC[C@H](NC(=O)[C@H](CC(C)C)NC(=O)[C@@H](CCCCN/C(=N/CC)NCC)NC(=O)[C@H](Cc1ccc(O)cc1)NC(=O)[C@H](CO)NC(=O)[C@@H](Cc1cccnc1)NC(=O)[C@@H](Cc1ccc(Cl)cc1)NC(=O)[C@@H](Cc1ccc2ccccc2c1)NC(C)=O)C(=O)N1CCC[C@H]1C(=O)N[C@H](C)C(N)=O [ganirelix], the percent effect is reported as -3.24%. Compound CC1(S(=O)(=O)O)CC(=O)c2ccccc2C1=O (stereo not given) [menadione sodium bisulfite] has a percent effect of 1.19%. CN1CCCN(C(c2ccccc2)c2ccc(Cl)cc2)CC1 (stereo not given) [homochlorcyclizine] gave a percent effect of -8.12%. In the case of O=C(Oc1ccccc1C(=O)O)c1ccccc1O [salsalate], the percent effect is reported as 0.0485%. In the case of CCC(=O)Oc1ccc2c(c1)CC[C@@H]1[C@@H]2CC[C@]2(C)[C@@H](OC(=O)CC)CC[C@@H]12, the percent effect is reported as -2.7%. Work on N[C@@H](CC(=O)N1CCn2c(nnc2C(F)(F)F)C1)Cc1cc(F)c(F)cc1F yielded a percent effect of -3.68%. In the case of CCCCC1C(=O)N(c2ccccc2)N(c2ccc(O)cc2)C1=O (stereo not given) [oxyphenbutazone], the percent effect is reported as -5.93%. C=C(C#N)C(=O)OCCCC [enbucrilate] showed a percent effect of -5.11%. With CNCCC(Oc1ccccc1OC)c1ccccc1 (stereo not given) [nisoxetine] the percent effect was 1.95%. Work on CC(C)NCC(O)c1ccc(NS(C)(=O)=O)cc1 (stereo not given) yielded a percent effect of -0.612%. Compound CCCOc1cc(N)ccc1C(=O)OCCN(CC)CC [propoxycaine] has a percent effect of -1.97%. O=C1c2c(O)cccc2[C@@H](O[C@@H]2O[C@H](CO)[C@H](O)[C@@H](O)[C@H]2O)c2cc(CO)cc(O)c21 showed a percent effect of -12.3%. Compound Cc1c(C)c2c(c(C)c1O)CC[C@@](C)(CCC[C@H](C)CCC[C@H](C)CCCC(C)C)O2 has a percent effect of 1.01%. With CC(=O)NC[C@H]1CN(c2ccc(N3CCOCC3)c(F)c2)C(=O)O1 [linezolid] the percent effect was 3.58% and -8.02%. COCCOC(=O)C1=C(C)NC(C)=C(C(=O)OC/C=C/c2ccccc2)C1c1cccc([N+](=O)[O-])c1 (stereo not given) [Cilnidipine] gave a percent effect of 2.49%. In the case of C[C@@H]1C[C@H]2[C@@H]3CCC4=CC(=O)C=C[C@]4(C)[C@@]3(F)[C@@H](O)C[C@]2(C)[C@H]1C(=O)CO [desoximetasone], the percent effect is reported as -4.17%.
